Source: PMC11283213
No constants are given. Whether binding was seen depends on the method and setting. In cells and extracts the contact can be indirect. Some entries that bind do so weakly or less than the wild type. For some assays here: Sequences can lack the tags named with a protein. One block for each binder: values may come before it.

Sequences of proteins named here, by UniProt entry; tags and fusion partners are left off.
UniProt P78527: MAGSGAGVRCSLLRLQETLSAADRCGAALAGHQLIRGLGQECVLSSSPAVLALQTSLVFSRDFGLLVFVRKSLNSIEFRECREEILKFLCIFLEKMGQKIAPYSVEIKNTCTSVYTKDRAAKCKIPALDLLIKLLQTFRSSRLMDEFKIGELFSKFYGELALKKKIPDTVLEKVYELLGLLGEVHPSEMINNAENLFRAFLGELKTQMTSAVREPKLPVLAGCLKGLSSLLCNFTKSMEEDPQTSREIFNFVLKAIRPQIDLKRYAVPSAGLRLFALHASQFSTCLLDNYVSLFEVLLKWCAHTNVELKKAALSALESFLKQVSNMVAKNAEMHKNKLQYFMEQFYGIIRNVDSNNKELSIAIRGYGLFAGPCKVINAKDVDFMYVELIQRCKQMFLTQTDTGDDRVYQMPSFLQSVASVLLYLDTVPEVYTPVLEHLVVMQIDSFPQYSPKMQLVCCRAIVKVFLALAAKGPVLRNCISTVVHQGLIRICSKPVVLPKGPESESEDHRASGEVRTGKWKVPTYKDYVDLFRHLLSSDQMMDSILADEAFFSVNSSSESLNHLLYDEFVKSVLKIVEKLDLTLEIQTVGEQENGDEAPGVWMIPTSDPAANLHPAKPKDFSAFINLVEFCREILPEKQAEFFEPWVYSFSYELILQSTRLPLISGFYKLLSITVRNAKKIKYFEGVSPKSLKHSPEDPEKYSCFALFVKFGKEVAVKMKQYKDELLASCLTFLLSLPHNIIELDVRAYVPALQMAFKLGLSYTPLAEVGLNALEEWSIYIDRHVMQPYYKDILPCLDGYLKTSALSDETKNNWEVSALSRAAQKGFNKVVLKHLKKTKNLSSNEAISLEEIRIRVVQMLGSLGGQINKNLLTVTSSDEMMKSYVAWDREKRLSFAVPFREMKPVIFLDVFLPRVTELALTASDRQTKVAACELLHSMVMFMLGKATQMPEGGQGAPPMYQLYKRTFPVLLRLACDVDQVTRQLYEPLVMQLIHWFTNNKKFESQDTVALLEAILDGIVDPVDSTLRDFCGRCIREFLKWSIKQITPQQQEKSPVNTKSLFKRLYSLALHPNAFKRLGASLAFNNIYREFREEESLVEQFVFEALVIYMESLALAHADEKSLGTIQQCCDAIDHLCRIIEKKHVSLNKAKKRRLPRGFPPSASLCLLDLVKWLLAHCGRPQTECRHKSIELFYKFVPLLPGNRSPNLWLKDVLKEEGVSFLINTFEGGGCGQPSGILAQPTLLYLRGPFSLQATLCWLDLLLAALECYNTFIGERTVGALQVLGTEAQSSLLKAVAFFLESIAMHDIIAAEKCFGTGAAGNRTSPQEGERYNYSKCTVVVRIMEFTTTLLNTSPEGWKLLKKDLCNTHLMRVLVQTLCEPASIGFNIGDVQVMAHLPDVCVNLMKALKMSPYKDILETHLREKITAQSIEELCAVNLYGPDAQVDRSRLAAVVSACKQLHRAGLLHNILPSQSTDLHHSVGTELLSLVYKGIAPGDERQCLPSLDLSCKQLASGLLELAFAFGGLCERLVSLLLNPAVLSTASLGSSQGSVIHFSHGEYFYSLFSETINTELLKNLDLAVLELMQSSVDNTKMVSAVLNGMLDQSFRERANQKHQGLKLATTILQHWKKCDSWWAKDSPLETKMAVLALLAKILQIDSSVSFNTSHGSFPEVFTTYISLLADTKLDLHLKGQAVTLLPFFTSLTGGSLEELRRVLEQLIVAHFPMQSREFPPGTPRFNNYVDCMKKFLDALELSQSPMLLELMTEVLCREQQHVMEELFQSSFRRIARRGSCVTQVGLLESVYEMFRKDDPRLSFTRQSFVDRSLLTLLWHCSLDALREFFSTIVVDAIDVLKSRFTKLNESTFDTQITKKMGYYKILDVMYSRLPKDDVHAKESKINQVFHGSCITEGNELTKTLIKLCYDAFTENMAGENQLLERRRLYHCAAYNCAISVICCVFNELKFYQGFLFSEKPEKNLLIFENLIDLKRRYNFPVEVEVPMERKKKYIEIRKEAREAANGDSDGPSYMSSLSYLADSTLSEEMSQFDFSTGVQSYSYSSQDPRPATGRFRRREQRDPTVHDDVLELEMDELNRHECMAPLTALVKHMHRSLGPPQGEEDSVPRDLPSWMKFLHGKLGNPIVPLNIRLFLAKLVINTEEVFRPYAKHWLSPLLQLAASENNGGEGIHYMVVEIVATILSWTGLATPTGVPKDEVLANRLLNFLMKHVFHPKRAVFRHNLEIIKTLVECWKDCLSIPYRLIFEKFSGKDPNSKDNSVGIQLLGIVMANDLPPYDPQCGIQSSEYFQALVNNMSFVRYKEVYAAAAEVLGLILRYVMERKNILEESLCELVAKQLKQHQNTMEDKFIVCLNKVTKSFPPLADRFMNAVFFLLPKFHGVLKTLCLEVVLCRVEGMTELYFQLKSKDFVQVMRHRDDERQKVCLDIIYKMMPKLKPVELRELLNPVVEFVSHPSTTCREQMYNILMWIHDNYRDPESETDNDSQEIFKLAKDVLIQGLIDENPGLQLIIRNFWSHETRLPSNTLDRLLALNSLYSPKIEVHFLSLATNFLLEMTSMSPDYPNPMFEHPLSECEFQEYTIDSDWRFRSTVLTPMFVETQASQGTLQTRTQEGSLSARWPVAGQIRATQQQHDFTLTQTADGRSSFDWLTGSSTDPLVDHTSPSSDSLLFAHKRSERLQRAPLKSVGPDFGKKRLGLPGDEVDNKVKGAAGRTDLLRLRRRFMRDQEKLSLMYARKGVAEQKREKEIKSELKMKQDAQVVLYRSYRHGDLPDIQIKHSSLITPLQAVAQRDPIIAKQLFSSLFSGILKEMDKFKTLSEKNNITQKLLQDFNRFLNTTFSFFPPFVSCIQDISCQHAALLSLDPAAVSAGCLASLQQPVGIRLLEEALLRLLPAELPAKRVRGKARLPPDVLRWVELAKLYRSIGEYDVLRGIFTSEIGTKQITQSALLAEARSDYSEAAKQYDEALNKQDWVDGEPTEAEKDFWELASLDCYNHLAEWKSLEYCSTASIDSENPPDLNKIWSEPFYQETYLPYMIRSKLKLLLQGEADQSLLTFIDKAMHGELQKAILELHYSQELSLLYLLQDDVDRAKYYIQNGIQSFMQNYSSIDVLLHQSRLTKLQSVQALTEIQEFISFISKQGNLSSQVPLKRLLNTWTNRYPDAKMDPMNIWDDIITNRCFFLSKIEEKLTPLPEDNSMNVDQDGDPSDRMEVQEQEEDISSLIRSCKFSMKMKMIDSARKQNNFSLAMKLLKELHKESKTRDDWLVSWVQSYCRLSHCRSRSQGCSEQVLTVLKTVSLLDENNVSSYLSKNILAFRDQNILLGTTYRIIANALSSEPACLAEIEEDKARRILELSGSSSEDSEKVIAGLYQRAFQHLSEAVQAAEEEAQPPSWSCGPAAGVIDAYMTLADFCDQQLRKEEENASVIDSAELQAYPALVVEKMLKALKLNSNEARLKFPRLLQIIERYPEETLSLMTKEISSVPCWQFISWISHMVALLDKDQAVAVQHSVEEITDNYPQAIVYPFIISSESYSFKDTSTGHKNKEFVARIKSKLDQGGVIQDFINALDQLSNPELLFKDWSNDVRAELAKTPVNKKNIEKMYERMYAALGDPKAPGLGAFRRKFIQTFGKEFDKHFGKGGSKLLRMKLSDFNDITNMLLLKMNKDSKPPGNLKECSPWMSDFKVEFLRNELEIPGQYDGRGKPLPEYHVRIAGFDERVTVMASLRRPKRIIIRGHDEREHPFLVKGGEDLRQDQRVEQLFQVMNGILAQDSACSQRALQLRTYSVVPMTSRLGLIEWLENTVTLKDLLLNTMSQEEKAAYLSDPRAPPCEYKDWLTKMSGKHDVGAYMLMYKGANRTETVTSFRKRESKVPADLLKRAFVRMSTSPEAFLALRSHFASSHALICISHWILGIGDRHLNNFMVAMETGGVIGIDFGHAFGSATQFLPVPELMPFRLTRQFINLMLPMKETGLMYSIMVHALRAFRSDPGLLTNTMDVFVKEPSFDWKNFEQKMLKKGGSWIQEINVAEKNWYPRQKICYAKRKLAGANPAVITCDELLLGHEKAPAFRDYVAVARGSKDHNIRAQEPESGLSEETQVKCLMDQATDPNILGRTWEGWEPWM
UniProt P13010: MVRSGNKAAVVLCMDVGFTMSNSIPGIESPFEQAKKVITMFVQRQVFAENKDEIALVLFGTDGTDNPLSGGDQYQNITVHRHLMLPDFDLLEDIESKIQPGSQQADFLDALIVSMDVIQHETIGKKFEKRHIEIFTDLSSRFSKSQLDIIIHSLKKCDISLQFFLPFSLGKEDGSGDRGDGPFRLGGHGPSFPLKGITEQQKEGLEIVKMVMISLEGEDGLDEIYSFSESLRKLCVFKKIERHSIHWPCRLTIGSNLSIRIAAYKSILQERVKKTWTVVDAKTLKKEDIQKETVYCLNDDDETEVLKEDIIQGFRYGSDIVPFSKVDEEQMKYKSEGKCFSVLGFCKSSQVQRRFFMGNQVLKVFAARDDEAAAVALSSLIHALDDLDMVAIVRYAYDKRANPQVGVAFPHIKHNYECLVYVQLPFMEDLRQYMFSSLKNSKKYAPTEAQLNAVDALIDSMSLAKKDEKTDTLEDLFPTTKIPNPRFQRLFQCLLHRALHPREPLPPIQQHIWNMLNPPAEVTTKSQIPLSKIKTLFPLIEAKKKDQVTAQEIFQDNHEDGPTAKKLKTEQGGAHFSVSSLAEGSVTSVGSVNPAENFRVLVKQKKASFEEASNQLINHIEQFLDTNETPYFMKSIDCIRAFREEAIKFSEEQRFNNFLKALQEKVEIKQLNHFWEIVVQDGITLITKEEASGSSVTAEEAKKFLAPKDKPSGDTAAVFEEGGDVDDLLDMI

Legend:
[1] = target: DNA-PKcs (human (endogenous in HeLa)) (UniProt P78527); assay: co-IP; HeLa cell lysates immunoprecipitated with anti-DNA-PKcs, anti-PDLIM1 antibodies or mouse IgG; immunoblot for PDLIM1 and DNA-PKcs; endogenous proteins
[2] = target: Ku80 (construct of the GST pull-down) (UniProt P13010); assay: pull-down; GST pull-down assay; which partner carried GST is not told in the text shown

binding [1]: binds
B1: PDZ and LIM domain protein 1 (PDLIM1) (protein, UniProt O00151 1-329)
chain: MTTQQIDLQGPGPWGFRLVGGKDFEQPLAISRVTPGSKAALANLCIGDVITAIDGENTSNMTHLEAQNRIKGCTDNLTLTVARSEHKVWSPLVTEEGKRHPYKMNLASEPQEVLHIGSAHNRSAMPFTASPASSTTARVITNQYNNPAGLYSSENISNFNNALESKTAASGVEANSRPLDHAQPPSSLVIDKESEVYKMLQEKQELNEPPKQSTSFLVLQEILESEEKGDPNKPSGFRSVKAPVTKVAASIGNAQKLPMCDKCGTGIVGVFVKLRDRHRHPECYVCTDCGTNLKQKGHFFVEDQIYCEKHARERVTPPEGYEVVTVFPK

binding [2]: binds
B2: PDLIM1 (construct of the GST pull-down) (protein, UniProt O00151 1-329)
chain: B1 chain
